No constants are given. Whether binding was seen depends on the method and setting. In cells and extracts the contact can be indirect. A yes stands for co-enrichment or nearness to the bait. Other partners may have been found. A no says only that the protein was not detected with the bait.

The test addresses GST-Nsp1 (SARS-CoV-2 Nsp1, expressed in 293T cells) (SARS-CoV-2) (UniProt P0DTD1). The test is described as follows: affinity purification with mass spectrometry.

Regarding “GANP (germinal center-associated nuclear protein), endogenous (from UniProt O60318 1-1980)”, the binding entry is “no binding”.
For “mRNA export factor/RNA helicase UAP56 (DDX39B), endogenous (from UniProt Q13838 1-428)” the value was “binds”.

B1: THOC3, endogenous (protein, UniProt Q96J01 1-351)
chain: MAVPAAAMGPSALGQSGPGSMAPWCSVSSGPSRYVLGMQELFRGHSKTREFLAHSAKVHSVAWSCDGRRLASGSFDKTASVFLLEKDRLVKENNYRGHGDSVDQLCWHPSNPDLFVTASGDKTIRIWDVRTTKCIATVNTKGENINICWSPDGQTIAVGNKDDVVTFIDAKTHRSKAEEQFKFEVNEISWNNDNNMFFLTNGNGCINILSYPELKPVQSINAHPSNCICIKFDPMGKYFATGSADALVSLWDVDELVCVRCFSRLDWPVRTLSFSHDGKMLASASEDHFIDIAEVETGDKLWEVQCESPTFTVAWHPKRPLLAFACDDKDGKYDSSREAGTVKLFGLPNDS
For B1, the binding result is given as “no binding”.
